Data published in US20130287781A1.
Positions count from the first letter of the chain named. Results are given in words; binding and its absence hold for the method and conditions named. Some results given as binding are weak or reduced against the parent protein; the word gives no strength.

Protein sequences, listed by entry. Tags and fused reporters are not part of them. Residues count along the entry.
UniProt Q9NQC3, residues 186-1004: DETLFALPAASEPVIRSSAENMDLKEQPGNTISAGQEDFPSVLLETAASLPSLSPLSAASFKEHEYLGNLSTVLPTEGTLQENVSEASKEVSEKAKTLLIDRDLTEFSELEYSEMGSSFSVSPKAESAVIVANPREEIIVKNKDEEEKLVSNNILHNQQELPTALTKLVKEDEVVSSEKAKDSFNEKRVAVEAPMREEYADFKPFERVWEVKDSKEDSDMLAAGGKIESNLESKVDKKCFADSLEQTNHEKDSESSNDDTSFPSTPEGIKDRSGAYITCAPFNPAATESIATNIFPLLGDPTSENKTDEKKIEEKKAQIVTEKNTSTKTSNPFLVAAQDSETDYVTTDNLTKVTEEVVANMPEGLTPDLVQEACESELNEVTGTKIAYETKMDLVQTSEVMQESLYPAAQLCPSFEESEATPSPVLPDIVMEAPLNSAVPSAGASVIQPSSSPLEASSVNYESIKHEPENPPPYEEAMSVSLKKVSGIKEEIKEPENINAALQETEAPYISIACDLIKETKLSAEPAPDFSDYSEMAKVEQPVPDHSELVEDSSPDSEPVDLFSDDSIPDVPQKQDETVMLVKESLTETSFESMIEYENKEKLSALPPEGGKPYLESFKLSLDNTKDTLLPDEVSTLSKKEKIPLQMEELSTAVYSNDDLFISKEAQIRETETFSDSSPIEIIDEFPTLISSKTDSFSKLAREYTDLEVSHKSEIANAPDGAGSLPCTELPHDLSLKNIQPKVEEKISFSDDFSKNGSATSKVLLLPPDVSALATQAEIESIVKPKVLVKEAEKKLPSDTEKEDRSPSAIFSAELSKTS

Columns and labels:
[1] = target: human Nogo-A extracellular domain expressed on the surface of CHO-K1 cells (human) (UniProt Q9NQC3); test: flow cytometry on CHO-K1 cells expressing human Nogo-A extracellular domain, PE anti-human IgG
[2] = target: human Nogo-A extracellular domain expressed on the surface of CHO-K1 cells (human) (UniProt Q9NQC3); test: flow cytometry on CHO-K1 cells expressing human Nogo-A, antibody at 100 mcg/ml, PE anti-human IgG
peptide 16 = target: T1, peptide 16; test: condition: 5 ug/ml antibody (not on the sheet); peptide ELISA: biotinylated 16-mer peptide on streptavidin, kappa-chain peroxidase conjugate, Abs490
T1 sequence (peptide, by the resolver, chain 1, biotin on the N-terminus of the SGSG linker): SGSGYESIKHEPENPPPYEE

peptide 17 = target: T2, peptide 17; test: as above
T2 sequence (peptide, by the resolver, chain 1, biotin on the N-terminus of the SGSG linker): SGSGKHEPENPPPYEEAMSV

B1: HcLc (chimera of 2A10: murine 2A10 VH and VL with human IgG constant regions) (antibody, V domains shown)
VH: QVQLQQPGTELVKPGASVKLSCKASGYTFTSYWMHWVKQRPGQGLEWIGNINPSNGGTNYNEKFKSKATLTVDKSSSTAYMQLSSLTSEDSAVYYCELGQGYWGQGTLVTVSS
VL: DIVITQDELSNPVTSGESVSISCRSSKSLLYKDGKTYLNWFLQRPGQSPQLLIYLMSTRASGVSDRFSGSGSGTDFTLEISRVKAEDVGVYYCQQLVEYPLTFGAGTKLELKR
binding [1]: binds | binding [2]: binds

B2: H20L16 (antibody, human IgG1, kappa, V domains shown)
VH: QVQLVQSGAEVKKPGASVKVSCKASGYTFTSYWMHWVRQAPGQGLEWIGNINPSNGGTNYNEKFKSKATMTRDTSTSTAYMELSSLRSEDTAVYYCELGQGYWGQGTLVTVSS
VL: DIVMTQSPLSNPVTLGQPVSISCRSSKSLLYKDGKTYLNWFLQRPGQSPQLLIYLMSTRASGVPDRFSGGGSGTDFTLKISRVEAEDVGVYYCQQLVEYPLTFGQGTKLEIKR
binding [1]: binds | binding [2]: binds

B3: H27L16 (antibody, human IgG1, kappa, V domains shown)
VH: B2 VH with R38K, A40R, M70L, R72V, T74K, G99M
VL: B2 VL
binding [1]: binds | binding [2]: binds

B4: H28L13 (antibody, human IgG1, kappa, V domains shown)
VH: B2 VH with G99M
VL: B2 VL with N11L, V19A, L42Q
binding [1]: binds | binding [2]: binds

B5: 2A10 (murine monoclonal antibody) (antibody, V domains shown)
VH: B1 VH with L108T, V109L
VL: DIVITQDELSNPVTSGESVSISCRSSKSLLYKDGKTYLNWFLQRPGQSPQLLIYLMSTRASGVSDRFSGSGSGTDFTLEISRVKAEDVGVYYCQQLVEYPLTFGAGTKLELK
binding (peptide 16): no binding | binding (peptide 17): no binding
